# Experimental data: the supplement of paper PMC8728848
# This is one part of the list.
# B1: Epa3to2 (Candida glabrata) (protein)
# chain: MGSSHHHHHHSSGLVPRGSHMKRELSSQNPFGYPIGCSPQDVAIIPGLTMELYSYPIVSGTPPNCYDASYVDPEYPRTGYLKRKMVGKSTGVTGNLNYKYSVEKACMVKYGNLPAGYNYNEPLTVSNFTMILYGYFKAQTTGLHTFFVNADDLLYINFGAGNAFDCCKREDSKTKLGEYVAYDIWHVDSSKNKVSLFLEKDLYYPIRMFFNNRDNNSSLDLSFSVNGATDQISDFSGYLYSVPDQPDTCPAHIGYDTTCR
# Legend:
# Assay in all cases: glycan array binding signal (z-score within array); higher = stronger binding
# Conditions in all cases: glycan notation: IUPAC condensed, linker removed
# Fuc(a1-2)Gal = molecular target: Fuc(a1-2)Gal
# Procedure, shortened: (§1)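 The Consortium for Functional Glycomics database supplied 3228 glycan arrays, of which those lacking an available protein sequence were dropped. The binding signal, a within-array Z-score, was averaged across arrays of the same protein sequence and across linkers. Negative scores can be read as non-binding.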
# Fuc(a1-2)Gal(b1-3)GalNAc = molecular target: Fuc(a1-2)Gal(b1-3)GalNAc
# Procedure, shortened: as §1
# [1] = molecular target: Fuc(a1-2)Gal(b1-3)GalNAc(a1-3)[Fuc(a1-2)]Gal(b1-4)Glc
# Procedure, shortened: as §1
# [2] = molecular target: Fuc(a1-2)Gal(b1-3)GalNAc(a1-3)[Fuc(a1-2)]Gal(b1-4)GlcNAc
# Procedure, shortened: as §1
# [3] = molecular target: Fuc(a1-2)Gal(b1-3)GalNAc(b1-3)Gal
# Procedure, shortened: as §1
# [4] = molecular target: Fuc(a1-2)Gal(b1-3)GalNAc(b1-3)Gal(a1-4)Gal(b1-4)Glc
# Procedure, shortened: as §1
# [5] = molecular target: Fuc(a1-2)Gal(b1-3)GalNAc(b1-4)[Neu5Ac(a2-3)]Gal(b1-4)Glc
# Procedure, shortened: as §1
# Fuc(a1-2)Gal(b1-3)GlcNAc = molecular target: Fuc(a1-2)Gal(b1-3)GlcNAc
# Procedure, shortened: as §1
# [6] = molecular target: Fuc(a1-2)Gal(b1-3)GlcNAc(b1-2)Man(a1-3)[Fuc(a1-2)Gal(b1-3)GlcNAc(b1-2)Man(a1-6)]Man(b1-4)GlcNAc(b1-4)GlcNAc
# Procedure, shortened: as §1
# [7] = molecular target: Fuc(a1-2)Gal(b1-3)GlcNAc(b1-2)Man(a1-3)[Fuc(a1-2)Gal(b1-3)GlcNAc(b1-2)Man(a1-6)]Man(b1-4)GlcNAc(b1-4)[Fuc(a1-6)]GlcNAc
# Procedure, shortened: as §1
# [8] = molecular target: Fuc(a1-2)Gal(b1-3)GlcNAc(b1-3)Gal(b1-4)Glc
# Procedure, shortened: as §1
# [9] = molecular target: Fuc(a1-2)Gal(b1-3)GlcNAc(b1-3)GalNAc
# Procedure, shortened: as §1
# [10] = molecular target: Fuc(a1-2)Gal(b1-3)GlcNAc(b1-3)[Fuc(a1-2)Gal(b1-3)GlcNAc(b1-6)]GalNAc
# Procedure, shortened: as §1
# [11] = molecular target: Fuc(a1-2)Gal(b1-3)GlcNAc(b1-3)[Gal(b1-4)GlcNAc(b1-6)]Gal(b1-4)Glc
# Procedure, shortened: as §1
# [12] = molecular target: Fuc(a1-2)Gal(b1-3)GlcNAc(b1-3)[Neu5Ac(a2-6)Gal(b1-4)GlcNAc(b1-6)]Gal(b1-4)Glc
# Procedure, shortened: as §1
# [13] = molecular target: Fuc(a1-2)Gal(b1-3)GlcNAc6S
# Procedure, shortened: as §1
# [14] = molecular target: Fuc(a1-2)Gal(b1-3)[Fuc(a1-4)]GlcNAc
# Procedure, shortened: as §1
# [15] = molecular target: Fuc(a1-2)Gal(b1-3)[Fuc(a1-4)]GlcNAc(b1-2)Man(a1-3)[Fuc(a1-2)Gal(b1-3)[Fuc(a1-4)]GlcNAc(b1-2)Man(a1-3)]Man(b1-4)GlcNAc(b1-4)GlcNAc
# Procedure, shortened: as §1
# [16] = molecular target: Fuc(a1-2)Gal(b1-3)[Fuc(a1-4)]GlcNAc(b1-2)Man(a1-3)[Fuc(a1-2)Gal(b1-3)[Fuc(a1-4)]GlcNAc(b1-2)Man(a1-6)]Man(b1-4)GlcNAc(b1-4)[Fuc(a1-6)]GlcNAc(b1-4)[Fuc(a1-6)]GlcNAc
# Procedure, shortened: as §1
# [17] = molecular target: Fuc(a1-2)Gal(b1-3)[Fuc(a1-4)]GlcNAc(b1-3)[Fuc(a1-3)[Gal(b1-4)]GlcNAc(b1-6)]Gal(b1-4)Glc
# Procedure, shortened: as §1
# [18] = molecular target: Fuc(a1-2)Gal(b1-3)[Fuc(a1-4)]GlcNAc(b1-3)[Gal(b1-4)GlcNAc(b1-6)]Gal(b1-4)Glc
# Procedure, shortened: as §1
# Fuc(a1-2)Gal(b1-4)Glc = molecular target: Fuc(a1-2)Gal(b1-4)Glc
# Procedure, shortened: as §1
# Fuc(a1-2)Gal(b1-4)Glc6S = molecular target: Fuc(a1-2)Gal(b1-4)Glc6S
# Procedure, shortened: as §1
# Fuc(a1-2)Gal(b1-4)GlcNAc = molecular target: Fuc(a1-2)Gal(b1-4)GlcNAc
# Procedure, shortened: as §1
# [19] = molecular target: Fuc(a1-2)Gal(b1-4)GlcNAc(b1-2)Man
# Procedure, shortened: as §1
# [20] = molecular target: Fuc(a1-2)Gal(b1-4)GlcNAc(b1-2)Man(a1-3)[Fuc(a1-2)Gal(b1-4)GlcNAc(b1-2)Man(a1-6)]Man(b1-4)GlcNAc(b1-4)GlcNAc
# Procedure, shortened: as §1
# [21] = molecular target: Fuc(a1-2)Gal(b1-4)GlcNAc(b1-2)Man(a1-3)[Fuc(a1-2)Gal(b1-4)GlcNAc(b1-2)Man(a1-6)]Man(b1-4)GlcNAc(b1-4)[Fuc(a1-6)]GlcNAc
# Procedure, shortened: as §1
# [22] = molecular target: Fuc(a1-2)Gal(b1-4)GlcNAc(b1-2)[Fuc(a1-2)Gal(b1-4)GlcNAc(b1-4)]Man(a1-3)[Fuc(a1-2)Gal(b1-4)GlcNAc(b1-2)Man(a1-6)]Man(b1-4)GlcNAc(b1-4)GlcNAc
# Procedure, shortened: as §1
# [23] = molecular target: Fuc(a1-2)Gal(b1-4)GlcNAc(b1-3)Gal(b1-4)GlcNAc
# Procedure, shortened: as §1
# [24] = molecular target: Fuc(a1-2)Gal(b1-4)GlcNAc(b1-3)Gal(b1-4)GlcNAc(b1-2)Man(a1-3)[Fuc(a1-2)Gal(b1-4)GlcNAc(b1-3)Gal(b1-4)GlcNAc(b1-2)Man(a1-6)]Man(b1-4)GlcNAc(b1-4)GlcNAc
# Procedure, shortened: as §1
binder,measurement,setting,value
B1,glycan array binding signal (z-score),Fuc(a1-2)Gal,-1.2
same,glycan array binding signal (z-score),Fuc(a1-2)Gal(b1-3)GalNAc,-0.585
same,glycan array binding signal (z-score),[1],-1.29
same,glycan array binding signal (z-score),[2],-1.02
same,glycan array binding signal (z-score),[3],3.03
same,glycan array binding signal (z-score),[4],0.739
same,glycan array binding signal (z-score),[5],0.301
same,glycan array binding signal (z-score),Fuc(a1-2)Gal(b1-3)GlcNAc,-0.953
same,glycan array binding signal (z-score),[6],1.32
same,glycan array binding signal (z-score),[7],0.176
same,glycan array binding signal (z-score),[8],-0.162
same,glycan array binding signal (z-score),[9],-0.312
same,glycan array binding signal (z-score),[10],0.318
same,glycan array binding signal (z-score),[11],1.2
same,glycan array binding signal (z-score),[12],-1.28
same,glycan array binding signal (z-score),[13],-0.819
same,glycan array binding signal (z-score),[14],-1.03
same,glycan array binding signal (z-score),[15],2.1
same,glycan array binding signal (z-score),[16],1.1
same,glycan array binding signal (z-score),[17],-0.621
same,glycan array binding signal (z-score),[18],0.392
same,glycan array binding signal (z-score),Fuc(a1-2)Gal(b1-4)Glc,-0.73
same,glycan array binding signal (z-score),Fuc(a1-2)Gal(b1-4)Glc6S,-0.819
same,glycan array binding signal (z-score),Fuc(a1-2)Gal(b1-4)GlcNAc,-0.426
same,glycan array binding signal (z-score),[19],-0.407
same,glycan array binding signal (z-score),[20],0.506
same,glycan array binding signal (z-score),[21],-0.035
same,glycan array binding signal (z-score),[22],0.924
same,glycan array binding signal (z-score),[23],-0.587
same,glycan array binding signal (z-score),[24],-0.112

# Reprinted at random: two entries already listed.
binder,measurement,setting,value
B1,glycan array binding signal (z-score),Fuc(a1-2)Gal(b1-4)GlcNAc,-0.426
same,glycan array binding signal (z-score),[7],0.176
